According to patent publication US20090263341A1, “SOFT ANTICHOLINERGIC ESTERS” (priority 2005, published 2009):
Structures were worked out from names or drawings and are uncertain.

Tested on: guinea pig ileum longitudinal muscle strips
Assay: Guinea pig ileum longitudinal muscle assay, pA2 against acetylcholine (Schild plot)
Conditions: tissue samples from four animals; tested form: Br

CCCCCCCCOC(=O)C[N+]1(C)CCC(OC(=O)C(O)(c2ccccc2)C2CCCC2)C1 (stereo not shown)
pA2, Ileum: 6.64
